Drawing on article PMC3954883, this text covers binding for one substance.

Sequences of proteins named here, by UniProt entry; tags and fusion partners are left off. Residues count along the entry.
UniProt P02701, residues 25-152: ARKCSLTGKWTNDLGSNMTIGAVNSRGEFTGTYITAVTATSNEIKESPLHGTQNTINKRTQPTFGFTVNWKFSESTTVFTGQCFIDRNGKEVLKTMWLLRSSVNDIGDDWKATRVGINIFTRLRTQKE

These are yes or no findings as the source states them, for the method shown.

This experiment has as its target avidin from chicken (AVD) (chicken) (UniProt P02701). Briefly: condition: only after 20 min at 80°C in the absence of biotin; SDS-PAGE stability assay; as the stability assay, the sample without biotin after 20 min at 80°C; both purified.

“avidin from chicken (AVD) (from UniProt P02701 25-152)”: the binding result was “no binding”.
